Test results reported in US20210364519A1, “DETERMINING CANCER RESPONSIVENESS TO TREATMENT” (Queensland University of Technology, priority 2018, published 2021).
For at least one compound, name, drawing or mass did not settle the structure.

What was measured:
[1] = test system: SASH1 expression in breast cancer cell lines; experiment: SASH1 protein expression by immunoblotting after chloropyramine treatment; format: cell-based; conditions: 25 or 50 μM, 24 h; number of lines tested
breast cancer cell lines = experiment: Cell confluency assay; format: cell-based
[2] = test system: T47-D, MDA-MB-231 and BT-549; experiment: Annexin V/Propidium Iodide (PI) analysis; format: cell-based; conditions: 48 h post-treatment, all three lines
[3] = test system: T47-D, MDA-MB-231 and BT-549 cells; experiment: Chloropyramine treatment after SASH1 siRNA depletion (confluence); format: cell-based; conditions: SASH1-targeted siRNA prior to treatment; 96 h
[4] = test system: cell lines from melanoma, neuroblastoma, breast and pancreatic cancers; conditions: refs [17, 18, 24-26]; cited from earlier work
breast cancer xenograft = conditions: ref [18]; cited from earlier work

CN(C)CCN(Cc1ccc(Cl)cc1)c1ccccn1 [chloropyramine]
breast cancer cell lines with induced SASH1 expression [1]: 7 of the 8 | breast cancer cell lines with inhibited cell growth (breast cancer cell lines; 96 h, confluence relative to untreated control, number of lines treated): 7 of the 8 | breast cancer cell lines with reduced viability (breast cancer cell lines; number of lines tested): 6 of 8 | Annexin V (apoptosis) [2]: increase in Annexin V | effect of SASH1 depletion on chloropyramine-induced cell death [3]: partially rescued the cell death response in all three lines | survival of cancer cell lines [4]: reduces survival | breast cancer xenograft growth in vivo (breast cancer xenograft): can reduce breast cancer xenograft growth
